Experimental data: article PMC11628322
Results are given in words; binding and its absence hold for the method and conditions named. In cells and extracts the contact can be indirect. A yes stands for co-enrichment or nearness to the bait. Other partners may have been found. Where a sequence is shown, tags or fusion partners need not be part of it.

Protein sequences, listed by entry. Tags and fused reporters are not part of them. Residues count along the entry.
UniProt P30530, residues 26-894: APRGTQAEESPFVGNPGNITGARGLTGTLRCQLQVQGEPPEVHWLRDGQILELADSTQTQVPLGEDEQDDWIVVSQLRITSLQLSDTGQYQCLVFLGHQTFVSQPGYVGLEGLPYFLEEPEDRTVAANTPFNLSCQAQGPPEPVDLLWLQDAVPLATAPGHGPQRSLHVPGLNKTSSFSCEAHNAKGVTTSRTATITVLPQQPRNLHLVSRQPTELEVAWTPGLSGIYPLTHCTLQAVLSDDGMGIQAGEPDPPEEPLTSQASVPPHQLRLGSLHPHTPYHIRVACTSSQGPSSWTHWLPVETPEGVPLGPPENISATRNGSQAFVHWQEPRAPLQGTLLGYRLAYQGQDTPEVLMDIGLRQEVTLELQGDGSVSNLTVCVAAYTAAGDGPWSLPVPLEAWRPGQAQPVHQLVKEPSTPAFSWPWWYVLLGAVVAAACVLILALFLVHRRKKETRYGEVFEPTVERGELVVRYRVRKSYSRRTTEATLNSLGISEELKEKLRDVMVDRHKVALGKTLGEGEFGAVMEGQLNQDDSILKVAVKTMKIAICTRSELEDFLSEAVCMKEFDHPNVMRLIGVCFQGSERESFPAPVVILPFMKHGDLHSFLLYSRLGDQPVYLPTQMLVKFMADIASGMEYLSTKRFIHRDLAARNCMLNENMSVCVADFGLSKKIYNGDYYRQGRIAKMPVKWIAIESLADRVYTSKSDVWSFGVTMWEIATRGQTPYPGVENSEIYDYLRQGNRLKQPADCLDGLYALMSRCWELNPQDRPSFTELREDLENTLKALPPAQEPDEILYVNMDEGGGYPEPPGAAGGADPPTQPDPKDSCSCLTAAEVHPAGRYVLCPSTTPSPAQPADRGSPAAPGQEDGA

Molecular target: T1, Flag-PFKP (Phosphofructokinase, Platelet Type, labeled with a 3x Flag tag) (UniProt Q01813)
T1 sequence: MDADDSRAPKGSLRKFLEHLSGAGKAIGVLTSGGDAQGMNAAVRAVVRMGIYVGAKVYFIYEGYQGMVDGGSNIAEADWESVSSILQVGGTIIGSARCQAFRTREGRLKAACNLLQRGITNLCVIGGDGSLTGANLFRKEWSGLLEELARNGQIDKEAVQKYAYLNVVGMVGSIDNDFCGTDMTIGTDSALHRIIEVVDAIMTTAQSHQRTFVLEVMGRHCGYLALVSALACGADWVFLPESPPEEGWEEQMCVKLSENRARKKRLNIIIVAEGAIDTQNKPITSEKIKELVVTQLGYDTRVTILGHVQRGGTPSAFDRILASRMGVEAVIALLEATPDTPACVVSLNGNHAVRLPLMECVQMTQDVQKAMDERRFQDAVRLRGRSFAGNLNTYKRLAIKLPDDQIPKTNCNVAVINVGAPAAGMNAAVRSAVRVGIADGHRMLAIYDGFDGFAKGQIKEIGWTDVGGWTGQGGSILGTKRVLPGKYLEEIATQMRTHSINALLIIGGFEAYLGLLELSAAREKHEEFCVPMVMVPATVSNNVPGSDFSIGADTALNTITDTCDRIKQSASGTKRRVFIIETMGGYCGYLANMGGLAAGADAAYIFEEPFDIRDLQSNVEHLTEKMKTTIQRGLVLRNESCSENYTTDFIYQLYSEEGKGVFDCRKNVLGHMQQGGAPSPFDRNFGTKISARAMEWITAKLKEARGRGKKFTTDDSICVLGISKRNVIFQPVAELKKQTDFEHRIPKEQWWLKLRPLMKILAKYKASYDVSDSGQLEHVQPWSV
Assay: affinity purification with mass spectrometry; anti-Flag magnetic beads on lysate (IP lysis buffer) of H1299 cells with Flag-PFKP overexpression, empty vector as negative control; beads sent for 60 min mass spectrum analysis

Substance: tyrosine-protein kinase receptor UFO (AXL) (from UniProt P30530 26-894)
- binding: binds
